Results on 39 molecules are retold here after PubChem BioAssay AID2685 (National Center for Advancing Translational Sciences (NCATS), 2010).

Molecules are shown by their SMILES. The list shows a part of the results. These are further read-outs of the screen, such as a control signal, another cell line or another target. No call is given for them. Most of these compounds were active or inconclusive in the main read-out, so they are no random draw. Words in brackets tell the shape of the fitted curve; partial curves, single points and poor fits give uncertain potencies.

The assay in a line: qHTS Assay for Lipid Storage Modulators in Drosophila S3 Cells.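 As to cell number change: cells counted by Cell Tracker Red CMTPX staining in the red channel.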 The settings on record: BODIPY lipid droplet fluorescence, 18-24 h; for cell number change: measured here: cell count max response, cells fed with added oleic acid. In a few lines:
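Drosophila S3 cells got compounds at several concentrations plus oleic acid (400 uM solution). Laser-scanning cytometry with 488 nm excitation read lipid droplets at 500-530 nm and cells at 575-640 nm. Percent activity was relative to 20 uM Triacsin C.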
For orientation: In qHTS, concentration-response curves come from the screen itself.

[1] abbreviates: measured here: lipid fluorescence (Fed channel) AC50, cells fed with added oleic acid.
[2] abbreviates: measured here: cell number channel AC50, cells fed with added oleic acid.

The AC50 is the concentration at which the activity in the assay is half-maximal. Higher therefore signals activity only at high concentration. With `COc1ccc(OC)c(NC(=O)CN2C(=O)NC(C)(c3ccc4c(c3)OCCO4)C2=O)c1` (centres undefined), the cell number change is -6.27%. Besides, under setting [1], the AC50 was 6.51 µM [falling, single point].

As for `CCOC(=O)c1ccc(S(=O)(=O)NCC(C)(C)N2CCOCC2)cc1`, the cell number change came to 28.2%. For the same molecule, the AC50 under setting [1] is 25.9 µM [rising, single point].

For the molecule `CCOC(=O)Nc1nc(-c2ccc(Cl)cc2Cl)cs1`, the cell number change amounted to 43.4%. Also, the AC50 under setting [2] is 7.31 µM [rising, partial curve]. For the same molecule, the AC50 under setting [1] is 10.3 µM [rising, partial curve].

Turning to `Cc1ccc(N(Cc2ccc(C(=O)NC3CCCCC3)cc2)S(C)(=O)=O)cc1C`, the AC50 under setting [2] is 1.84 µM [rising, partial curve, poor fit].

For `CC1CCN(CC(CS(=O)(=O)c2ccc([N+](=O)[O-])cc2)N2CCC(C)CC2)CC1` (centres undefined), the cell number change was -18.6%. The AC50 under setting [1] was 0.164 µM [falling, full curve, poor fit].

Consider `COc1ccc(NC(=O)c2ccco2)cc1S(=O)(=O)N1CCCCC1`, for which the cell number change is -35%. For the same molecule, under setting [2], the half-maximal activity concentration (AC50) is 14.6 µM [falling, single point]. Besides, under setting [1], the AC50 was 8.2 µM [falling, partial curve].

As for `COc1ccc(C(=O)Nc2c(C)ccc3nsnc23)cc1[N+](=O)[O-]`, the cell number change worked out at 29.3%. The AC50 under setting [1] was 18.4 µM [rising, partial curve, poor fit].

For `CN(CC(=O)Nc1ccc(Cl)c(S(=O)(=O)N(C)C)c1)Cc1ccccc1`, the cell number change came to 19.2%.

Regarding `Cc1ccc(OCCNC(=O)c2ccccc2OCc2c(C)noc2C)cc1`, the cell number change came to 6.89%. Also, under setting [1], the AC50 was 6.51 µM [rising, partial curve, poor fit].

Regarding `O=c1cc(-c2ccc(O)cc2)oc2ccccc12`, the cell number change is -11%. Moreover, the AC50 under setting [1] was 2.06 µM [rising, partial curve].

On to `N#CC1=C(N)OC2=C(CC/C2=C\c2ccccc2Cl)C1c1ccccc1Cl` (centres undefined), for which the cell number change was -2.41%. Under setting [1], the AC50 is 16.4 µM [falling, single point].

For `CC(=O)C1=C(O)C(=O)N(c2ccc(O)cc2)C1c1ccc(Cl)cc1` (centres undefined), the cell number change was -3.31%.

For `Cc1ccc(OCC(=O)NC(C)c2ccc(Cl)c(Cl)c2)c([N+](=O)[O-])n1` (centres undefined), the cell number change was -12.8%. Moreover, the AC50 under setting [1] was 5.17 µM [rising, single point].

`Nc1nc(CSc2nc3ccccc3[nH]2)nc(N2CCOCC2)n1`: under setting [1], the AC50 is 0.058 µM [rising, full curve].

In the case of `ClC1=C(Cl)C(Cl)=C(Cl)C1=C/C=C/c1ccccc1`, the cell number change was -11.8%. Moreover, the AC50 under setting [1] is 16.4 µM [falling, partial curve].

On to `Cc1ccc(Cn2nnc3c(=O)[nH]c(C4CCCN(S(=O)(=O)c5ccccc5)C4)nc32)cc1` (centres undefined), for which the cell number change worked out at 100%. Also, under setting [2], the AC50 is 18.4 µM [rising, single point].

`COc1ccc(/C=C/CN2CCC(n3nccc3NC(=O)C3CCCC3)CC2)cc1`: the cell number change was found to be 16.6%. Also, the AC50 under setting [1] was 2.59 µM [rising, full curve].

Turning to `CCOc1ccc2nc(NC(=O)Nc3cccs3)sc2c1`, the cell number change was -29.3%. Besides, under setting [1], the AC50 is 0.651 µM [rising, full curve].

For the molecule `CCC(Sc1ccc2nnc(CCNS(=O)(=O)c3ccc(OC)cc3)n2n1)C(=O)OC` (centres undefined), the cell number change was 1.59%. The AC50 under setting [2] was 0.103 µM [falling, full curve, poor fit].

For `COc1cccc(-c2nc(CS(=O)(=O)CC(=O)N3CCc4ccccc43)c(C)o2)c1`, the cell number change was determined as 0.227%.

As for `Cc1ccc(OCCC(=O)OC(C)C(=O)Nc2ccc(Cl)cn2)cc1` (centres undefined), the cell number change stood at 21.5%.

Take `O=C(c1cccs1)N1CCCC(N2CCN(c3ccc(F)cc3)CC2)C1` (centres undefined): the cell number change is 35.5%. Also, the concentration at half-maximal activity (AC50) under setting [2] was 20.6 µM [rising, single point]. Also, the AC50 under setting [1] was 23.1 µM [falling, partial curve].

Regarding `Cc1cccc(S(=O)(=O)C(C#N)c2nc3ccccc3nc2N2CCOCC2)c1` (centres undefined), the cell number change is -12%.

For `CS(=O)(=O)Nc1ccc(C(=O)Nc2ccc(S(=O)(=O)N3CCCCC3)cc2)cc1`, the cell number change is -9.83%. The AC50 under setting [1] is 29.1 µM [falling, single point].

On to `O=[N+]([O-])c1ccc(Sc2ccccc2)nc1`, for which the AC50 is 6.51 µM [rising, single point] under setting [2] and 29.1 µM [falling, single point] under setting [1].

With `CCn1nc(C)c(Br)c1C(=O)Sc1ccccc1Cl`, the AC50 under setting [1] is 18.4 µM [falling, single point].

In the case of `O=C(c1cnc2n(c1=O)CCS2)N(c1ccccc1)C1CCCCC1`, the cell number change is -25.1%. Besides, under setting [1], the AC50 is 32.6 µM [falling, single point].

Take `Cc1cc(C)c(OCC(=O)Nc2ccc(N3CCOCC3)cc2)c(Br)c1`: the cell number change amounted to 35.2%. Further, the AC50 under setting [2] is 0.731 µM [rising, full curve, poor fit]. Under setting [1], the AC50 was 16.4 µM [rising, partial curve].

`COc1ccc(CNC(=O)CCCSc2ccccc2)cc1`: the cell number change was 8.57%. For the same molecule, the AC50 under setting [1] was 29.1 µM [rising, single point].

In the case of `O=C(OCc1ccc(Cl)cc1Cl)c1ccncc1`, the cell number change is -38.5%. In addition, the AC50 under setting [2] was 4.11 µM [falling, full curve, poor fit]. The AC50 under setting [1] is 29.1 µM [falling, partial curve, poor fit].

As for `CN(C)c1cccc(C(=O)OCC(=O)Nc2nccs2)c1`, the cell number change was found to be 27.6%.

Regarding `O=C(NCCCN1CCOCC1)c1ccc(CS(=O)(=O)c2ccc(Br)cc2)o1`, the cell number change was -17.5%. The AC50 under setting [1] is 2.31 µM [rising, single point].

On to `Cc1cc(C)c(NC(=O)COC(=O)CCn2c(C)csc2=O)c(C)c1`, for which the AC50 under setting [2] is 4.11 µM [falling, single point].

As to `O=C(COC(=O)/C=C/c1cccs1)Nc1ccc(F)cc1`, the cell number change is -48.7%. The AC50 under setting [2] is 4.11 µM [falling, full curve]. The AC50 under setting [1] was 4.61 µM [falling, full curve, poor fit].

In the case of `CSC(C1CCCC1)n1nnc2ccccc21` (centres undefined), the cell number change amounted to 13.9%. Further, under setting [1], the AC50 is 0.0517 µM [rising, full curve, poor fit].

As for `O=C(CS(=O)(=O)c1ccc(F)cc1)Nc1nccs1`, the AC50 under setting [1] is 9.2 µM [rising, partial curve].

In the case of `CCn1c(=O)c(=O)[nH]c2cc(C(=O)N(C)Cc3ccc(OC)c(F)c3)ccc21`, the cell number change is 8.4%. In addition, the concentration at half-maximal activity (AC50) under setting [1] was 6.51 µM [rising, single point].

As for `COc1cc2c(cc1OC)C(c1ccc(OC)c(OC)c1OC)CC(=O)N2` (centres undefined), the cell number change was -12.7%. The AC50 under setting [1] was 0.58 µM [rising, single point].

`CCS(=O)(=O)Nc1cccc(-c2nc3cccnc3s2)c1C`: the cell number change worked out at 42.6%. In addition, the AC50 under setting [2] is 6.51 µM [rising, partial curve]. Under setting [1], the AC50 was 7.31 µM [rising, partial curve].
